Measured values taken from US20210340272A1.
These are yes or no findings as the source states them, for the method shown. Some binding calls cover weakened binding; strength is not graded here. For some of these results: Where a sequence is shown, tags or fusion partners need not be part of it. Blank lines part the entries; values can stand above or below the binder they belong to.

By UniProt entry, the sequences of proteins in these tests, tags left out. Where a name states a change or a piece, a line headed by the entry shows the natural chain unless it says otherwise. Chains listed by the source or under a name are the forms on record and can include a tag or linker. Residues count along the entry.
UniProt P02768, residues 25-609: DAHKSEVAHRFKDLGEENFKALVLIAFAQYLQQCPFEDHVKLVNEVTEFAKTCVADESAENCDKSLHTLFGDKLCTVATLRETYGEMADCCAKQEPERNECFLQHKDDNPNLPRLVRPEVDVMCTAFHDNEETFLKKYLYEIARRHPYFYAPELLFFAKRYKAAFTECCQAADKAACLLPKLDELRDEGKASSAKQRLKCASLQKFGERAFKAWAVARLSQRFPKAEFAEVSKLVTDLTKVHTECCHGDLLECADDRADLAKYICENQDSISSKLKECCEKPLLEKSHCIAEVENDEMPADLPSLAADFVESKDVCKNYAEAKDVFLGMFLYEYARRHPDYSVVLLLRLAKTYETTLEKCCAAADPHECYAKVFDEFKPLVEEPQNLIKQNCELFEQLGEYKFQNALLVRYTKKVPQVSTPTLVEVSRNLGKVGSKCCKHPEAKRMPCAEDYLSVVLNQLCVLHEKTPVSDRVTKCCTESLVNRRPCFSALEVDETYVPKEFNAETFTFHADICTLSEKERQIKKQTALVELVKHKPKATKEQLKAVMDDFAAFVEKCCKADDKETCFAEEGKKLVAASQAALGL
UniProt A2V9Z4, residues 25-608: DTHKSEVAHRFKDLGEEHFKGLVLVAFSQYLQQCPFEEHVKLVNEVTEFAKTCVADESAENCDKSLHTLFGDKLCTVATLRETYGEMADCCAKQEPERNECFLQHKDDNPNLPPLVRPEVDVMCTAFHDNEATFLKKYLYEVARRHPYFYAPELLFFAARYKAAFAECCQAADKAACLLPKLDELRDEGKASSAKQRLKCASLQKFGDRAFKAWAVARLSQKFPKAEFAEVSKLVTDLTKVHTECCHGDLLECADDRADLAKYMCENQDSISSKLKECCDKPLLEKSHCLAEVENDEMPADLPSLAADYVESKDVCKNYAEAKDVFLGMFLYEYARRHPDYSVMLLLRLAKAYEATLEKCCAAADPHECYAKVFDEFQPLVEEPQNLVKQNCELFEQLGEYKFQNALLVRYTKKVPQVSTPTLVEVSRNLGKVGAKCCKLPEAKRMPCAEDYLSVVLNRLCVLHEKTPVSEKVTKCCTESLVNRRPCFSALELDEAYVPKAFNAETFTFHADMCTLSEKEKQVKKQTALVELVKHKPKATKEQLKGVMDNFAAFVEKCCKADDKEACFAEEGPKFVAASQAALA
human mesothelin (MSLN), soluble analyte in Octet (Q13421, form named): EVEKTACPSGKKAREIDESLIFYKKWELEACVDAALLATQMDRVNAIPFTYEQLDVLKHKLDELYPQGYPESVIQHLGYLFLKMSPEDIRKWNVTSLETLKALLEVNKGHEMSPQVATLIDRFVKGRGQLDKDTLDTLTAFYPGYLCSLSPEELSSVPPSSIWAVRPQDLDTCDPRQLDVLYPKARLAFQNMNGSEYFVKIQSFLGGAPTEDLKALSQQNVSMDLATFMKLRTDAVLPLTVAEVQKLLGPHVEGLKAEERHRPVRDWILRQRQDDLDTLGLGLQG

How the values were obtained:
[1] = target: human serum albumin (human) (UniProt P02768); test: BLI (Octet RED96), antibody on AHC biosensor, albumin at 200 nM
[2] = target: human serum albumin (human) (UniProt P02768); test: Octet RED96 biolayer interferometry; antibody loaded on AHC biosensor, dipped into human serum albumin at 200 nM
[3] = target: monkey serum albumin (monkey (Cyno)) (UniProt A2V9Z4); test: Octet RED96 biolayer interferometry; antibody loaded on AHC biosensor, dipped into monkey (cyno) serum albumin at 200 nM
[4] = target: human mesothelin (MSLN), soluble analyte in Octet (human) (UniProt Q13421); test: BLI (Octet RED96), Fc fusion on protein A biosensor, MSLN at 100, 50, 25 nM

- binding [1]: binds
- binding [2]: binds
- binding [3]: binds
B1: AWT-P494 (humanized P367) anti-HSA antibody (VHH)
VHH: EVQLVESGGGLVQPGGSLRLSCAASGSTWSINTLAWYRQAPGKQRDLVARISSGGSTYYADSVKGRFTISRDNSKNTLYLQMNSLRAEDTAVYYCYAQSTWYPPSWGQGTLVTVSS

- binding [4]: binds
B2: R3D5 (original llama VHH, Anti-MSLN-3) as human IgG1 Fc fusion (Fc fusion, not shown: a dimerising Fc or GST)
chain: QVQLVESGGGLVQAGGSLRLSCAASGSISSIRHMRWYRQAPGKQRELVATVSNDGSAYYLGSVKGRFTISRTNAKNTLLYLQMNSLKPEDSALYICNADTWGWPGADYWGQGTQVTVSS
